# The full ranking holds about 33,000 sequences; the median of “E-score (-0.5 to 0.5)” is about -0.016, and the highest 2% start at about 0.3. The list shows a part of the results.
# Molecular target: T1, Yer184c (UniProt P39961)
# T1 sequence: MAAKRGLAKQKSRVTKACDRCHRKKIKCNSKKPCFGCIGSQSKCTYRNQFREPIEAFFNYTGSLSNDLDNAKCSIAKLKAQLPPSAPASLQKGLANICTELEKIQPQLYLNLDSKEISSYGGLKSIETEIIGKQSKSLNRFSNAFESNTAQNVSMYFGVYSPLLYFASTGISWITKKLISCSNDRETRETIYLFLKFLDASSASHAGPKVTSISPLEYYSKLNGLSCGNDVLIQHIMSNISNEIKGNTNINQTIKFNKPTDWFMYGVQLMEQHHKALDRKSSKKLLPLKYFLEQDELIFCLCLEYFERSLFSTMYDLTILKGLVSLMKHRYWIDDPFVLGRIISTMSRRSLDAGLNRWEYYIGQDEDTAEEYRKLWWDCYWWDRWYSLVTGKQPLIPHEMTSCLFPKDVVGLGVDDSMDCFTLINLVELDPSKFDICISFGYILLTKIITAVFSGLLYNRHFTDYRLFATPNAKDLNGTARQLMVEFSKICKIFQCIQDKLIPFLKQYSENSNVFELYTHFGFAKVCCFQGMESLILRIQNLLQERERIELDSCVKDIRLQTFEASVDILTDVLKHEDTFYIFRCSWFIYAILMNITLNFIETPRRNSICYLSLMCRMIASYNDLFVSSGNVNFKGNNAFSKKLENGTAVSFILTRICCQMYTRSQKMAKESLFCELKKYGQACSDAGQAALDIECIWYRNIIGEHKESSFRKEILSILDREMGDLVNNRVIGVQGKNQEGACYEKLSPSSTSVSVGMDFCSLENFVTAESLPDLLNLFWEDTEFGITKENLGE
# Assay: PBM E-score (8-mer binding enrichment) (E-score (-0.5 to 0.5)); higher = stronger / more preferred TF binding
# Details: protein concentration: 100 nM; construct: GST-full length
# Procedure, shortened: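 The E-score, a modified Wilcoxon-Mann-Whitney statistic, was computed by the Universal PBM Analysis Suite for every ungapped eight-base word pooled with its reverse complement. Scans behind it were normalised with masliner after bound GST-tagged yeast transcription factors were detected with fluorescent anti-GST. The proteins, at about 100-200 nM, had been applied to universal all-10-mer Agilent arrays made double-stranded by primer extension.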
row,Sequence,PBM E-score
1,TATAGCAA,0.0619
2,ACCGCGCC,-0.0646
3,CACGAAAG,0.0865
4,AGTGAACC,0.0276
5,GTCTTAAA,0.0285
6,CATACGTC,-0.0848
7,ACTTTACA,0.0527
8,TATTGGAA,0.0772
9,AGGCTCGG,0.158
10,CAGCGCAC,-0.0919
11,ATTGCCGG,0.348
12,CGCTCTAC,-0.175
13,CGGATAAA,0.417
14,CCCGACTA,-0.0136
15,GCAGGGGC,-0.218
16,AGAAACCG,0.0973
17,GTCTGATA,-0.0901
18,GATCGCTA,-0.0688
19,GCACTGGA,-0.166
20,AAAGTAGA,0.0403
21,CTCAGGGA,-0.29
22,GCCAATCC,0.0935
23,CTCGACGA,-0.1
24,CCTGCTCG,-0.156
25,ATGCGGCA,0.0181

row,Sequence,PBM E-score
1,TATGATAA,0.228
2,AAACGCAT,-0.15
3,GTCTAATA,-0.129
4,TCGGGAAA,0.309
5,ATAATCAA,0.197
6,ATTTGACA,0.107
7,CCATCCGA,0.0749
8,AGAGTGCC,-0.159
9,GCAATTTA,0.207
10,CGGCGGAG,0.202
11,CTAAGGGC,-0.296
12,GTTTCCAA,-0.0255
13,AGTCCCTA,-0.257
14,GGGTCAAA,0.0026
15,ATGCGCAG,-0.195
16,ATAGGATA,0.00278
17,ACGTATAG,-0.0971
18,AACTTACC,0.0922
19,GACTAAAA,0.203
20,CTAACAAC,0.0682
21,ACCTCAAT,-0.0772
22,TAATTGGA,0.143
23,AAGTTTCG,0.0435
24,AAGTGATA,-0.118
25,AGTACTTG,0.0145

row,Sequence,PBM E-score
1,CGAATATA,0.167
2,CGATCAGA,-0.179
3,AACATGTT,0.19
4,CACGGAGA,0.199
5,CGGGCACA,-0.095
6,GCCGATAA,0.282
7,CTCCAGGA,-0.159
8,CGACCGCC,-0.169
9,TAAAATCA,0.259
10,CGGGGCGC,-0.0867
11,ACGGCGGG,0.0397
12,GGAGCAAA,-0.0609
13,CAAGCCTC,-0.237
14,TTCAGAAA,0.0478
15,AACAGGCC,-0.023
16,ATGTAATG,0.191
17,CCAAACCC,-0.218
18,GGGTTCTA,-0.175
19,AAAGCTTG,-0.0729
20,AAAAGCCC,-0.0797
21,AGTGAGGA,-0.153
22,CCTTACCC,-0.122
23,CTTCTATA,0.12
24,AATACCCT,-0.0621
25,CATACGAG,-0.0244

row,Sequence,PBM E-score
1,GCGCAGGA,-0.237
2,ACGGATCA,0.248
3,CCGGTATA,0.208
4,AAATTCTA,0.0844
5,AGCGGCGA,0.163
6,GCTTTGCC,-0.146
7,AGTCAATA,0.0893
8,GCTTCCAA,-0.00687
9,AAGGTTGT,-0.0663
10,CCCGCACA,-0.0186
11,TTAACTAA,0.219
12,AACCTGGG,-0.356
13,TCCCCACA,-0.342
14,GCAAAGTA,0.0568
15,AAGACGGT,-0.2
16,CCGGTGGC,0.119
17,GCCTTCTA,-0.111
18,AGCCTCAA,-0.08
19,ACCTTATC,-0.129
20,AACTTCGT,0.073
21,CCCACCCG,0.0102
22,GTTTTTGA,0.196
23,ACCCAATG,-0.177
24,ACGGCATC,0.0862
25,ATGTACTC,-0.00452

# A run of entries from the list above:
row,Sequence,PBM E-score
1,GCGCAGGA,-0.237
2,ACGGATCA,0.248
3,CCGGTATA,0.208

# (continued)

row,Sequence,PBM E-score
1,GTTGTGCA,-0.129
2,TCAGCTCA,0.0297
3,CACTGACA,0.0289
4,CATCAATG,-0.0256
5,CTGTTCAC,-0.145
6,CTCCGGTA,0.218
7,AAAGTCTG,-0.164
8,ACAGGCAG,-0.171
9,ACACCTGA,-0.144
10,GTTAGCGA,0.00811
11,AAGGAATC,0.0134
12,ATTACCCG,0.134
13,ATGCTTCC,0.0654
14,ACACGGCA,0.189
15,CTCCGCTC,-0.14
16,AGGCTCCC,-0.222
17,CAGATCTC,-0.0778
18,AACCAAAC,-0.103
19,AGCACACC,-0.238
20,ACCAAAAA,0.248
21,ATTTAGGC,0.008
22,GACGTCTC,-0.146
23,GAGTGAAA,0.021
24,TCCAACCA,-0.132
25,ATCTAGGG,-0.258

row,Sequence,PBM E-score
1,ATCGTGCC,0.0928
2,CGTAGTTC,-0.115
3,GGTTAAAC,0.107
4,GCCGAGGC,0.386
5,ATTTGGGC,-0.161
6,AGCGAGAT,-0.0323
7,CGAGCACG,-0.108
8,GCAAACCA,0.00588
9,CTTAAGGC,-0.0152
10,ATCGCTTC,-0.0737
11,ATCCTAGG,-0.142
12,CCTACAGA,-0.15
13,ACCCCGGT,-0.0834
14,CTGGAGCC,-0.141
15,AATGGGGT,-0.123
16,GAACGTTC,-0.0747
17,GAGCGTAC,-0.0881
18,ATTGCCAC,0.112
19,AGCGATTA,-0.0456
20,AGCCGAAG,0.14
21,CAGGACCA,-0.144
22,ATCCATGA,-0.277
23,CCGTGGCC,-0.0498
24,CTGAAAAG,-0.0233
25,CTGAGCAA,-0.0414

# Some values from above.
# Value for TCAGCTCA under PBM E-score: 0.0297
# Value for GAGTGAAA under PBM E-score: 0.021
# Value for CCTGCTCG under PBM E-score: -0.156
# Value for GACTAAAA under PBM E-score: 0.203
# Value for CGATCAGA under PBM E-score: -0.179

# Further records.

row,Sequence,PBM E-score
1,CCTTGCAC,-0.0776
2,AGCCTTCG,-0.209
3,CATGCTCA,-0.103
4,CATGCCTC,0.0649
5,GTAGCTAA,-0.0505
6,CAGGCAGA,-0.0928
7,CTAGCGGC,-0.14
8,GCCGCGTA,0.0371
9,AACTGGTC,-0.0409
10,AGTAGGCC,-0.0885
11,AGAGGGTG,-0.229
12,ACCAGCTA,-0.154
13,ATGCGCAA,0.00178
14,ATTATCCC,0.0672
15,CGTGAAAG,0.0767
16,ACTGCCCA,-0.242
17,CTAAGTGC,0.00555
18,CCATAGGG,-0.158
19,AGTCGTCG,-0.232
20,AGATGATC,0.166
21,GTCTGCGA,-0.103
22,TGCAAGCA,-0.0504
